These are yes or no findings as the source states them, for the method shown. Some binding calls cover weakened binding; strength is not graded here.
How the values were obtained:
Test in all cases: flow cytometry, transfected HEK293FF
[1] = biological target: membrane LIGHT A190S (human) (UniProt O43557)
[2] = biological target: membrane LIGHT G188A (human) (UniProt O43557)
[3] = biological target: membrane LIGHT R189A (human) (UniProt O43557)
[4] = biological target: membrane LIGHT R195A (human) (UniProt O43557)
[5] = biological target: membrane LIGHT S192A (human) (UniProt O43557)
[6] = biological target: membrane LIGHT S193A (human) (UniProt O43557)
[7] = biological target: membrane LIGHT S194A (human) (UniProt O43557)
[8] = biological target: membrane LIGHT T191A (human) (UniProt O43557)
[9] = biological target: membrane LIGHT V196A (human) (UniProt O43557)
[10] = biological target: membrane LIGHT W197A (human) (UniProt O43557)
[11] = biological target: membrane LIGHT W198A (human) (UniProt O43557)

The chains behind the UniProt entries cited, without tags or fusion partners. Where a name states a change or a piece, a line headed by the entry shows the natural chain unless it says otherwise. Residues count along the entry.
UniProt O43557: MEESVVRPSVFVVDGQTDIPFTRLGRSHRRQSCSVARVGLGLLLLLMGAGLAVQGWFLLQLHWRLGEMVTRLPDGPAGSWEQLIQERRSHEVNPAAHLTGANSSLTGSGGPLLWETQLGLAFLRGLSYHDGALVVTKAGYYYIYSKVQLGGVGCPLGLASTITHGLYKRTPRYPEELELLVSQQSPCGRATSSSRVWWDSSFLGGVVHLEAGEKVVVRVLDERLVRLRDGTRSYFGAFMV
UniProt P36941, residues 28-227: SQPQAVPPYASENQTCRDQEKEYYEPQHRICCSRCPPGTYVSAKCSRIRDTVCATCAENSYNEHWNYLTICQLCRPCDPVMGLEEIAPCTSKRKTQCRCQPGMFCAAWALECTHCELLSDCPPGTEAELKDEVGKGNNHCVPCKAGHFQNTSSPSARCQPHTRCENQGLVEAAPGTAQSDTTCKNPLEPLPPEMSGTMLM

Measured: binding

LTβR-Fc (from UniProt P36941 28-227) (Fc fusion)
binds: [1] | [2] | [3] | [4] | [5] | [6] | [7] | [8] | [9] | [10] | [11]
